Measured values taken from the supplement of paper PMC7661543.
The effect of the compound repeats well; differences between the knockouts mostly do not.

Tested on: MDA-MB-231
Assay: relative cell number vs DMSO control (72 h) (% of DMSO); higher = less growth inhibition (more cells)
Protocol: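 QMAP-Seq: a pool of 5 breast cancer cell lines (ZR-75-1, SKBR3, HCC-38, MDA-MB-231, BT-20), each carrying 12 doxycycline-inducible Cas9 sgRNA perturbations (11 knockouts plus non-targeting sgNT), was treated with compounds for 72 h at four 10-fold doses (10 nM-10 uM or 1 nM-1 uM range). Barcodes were amplified and sequenced, and cell number was interpolated from 293T spike-in standard curves. The result is expressed as % of the median of DMSO wells. Two biological replicates.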

O=c1ncccn1[C@@H]1O[C@H](CO)[C@@H](O)[C@H]1O [Zebularine]
Conditions | relative cell number
sgRNA knockout: sgATF3, 10 nM | 111
sgRNA knockout: sgATF3, 100 nM | 96.9
sgRNA knockout: sgATF3, 1000 nM | 82
sgRNA knockout: sgATF3, 10000 nM | 118
sgRNA knockout: sgATF4, 10 nM | 100
sgRNA knockout: sgATF4, 100 nM | 62.1
sgRNA knockout: sgATF4, 1000 nM | 86.1
sgRNA knockout: sgATF4, 10000 nM | 92.1
sgRNA knockout: sgATF6, 10 nM | 99.7
sgRNA knockout: sgATF6, 100 nM | 119
sgRNA knockout: sgATF6, 1000 nM | 126
sgRNA knockout: sgATF6, 10000 nM | 114
sgRNA knockout: sgATG7, 10 nM | 112
sgRNA knockout: sgATG7, 100 nM | 116
sgRNA knockout: sgATG7, 1000 nM | 102
sgRNA knockout: sgATG7, 10000 nM | 108
sgRNA knockout: sgERN1, 10 nM | 108
sgRNA knockout: sgERN1, 100 nM | 97.5
sgRNA knockout: sgERN1, 1000 nM | 100
sgRNA knockout: sgERN1, 10000 nM | 115
sgRNA knockout: sgHSF1, 10 nM | 115
sgRNA knockout: sgHSF1, 100 nM | 130
sgRNA knockout: sgHSF1, 1000 nM | 79
sgRNA knockout: sgHSF1, 10000 nM | 103
sgRNA knockout: sgHSF2, 10 nM | 105
sgRNA knockout: sgHSF2, 100 nM | 85.4
sgRNA knockout: sgHSF2, 1000 nM | 94.4
sgRNA knockout: sgHSF2, 10000 nM | 102
sgRNA knockout: sgKEAP1, 10 nM | 104
sgRNA knockout: sgKEAP1, 100 nM | 109
sgRNA knockout: sgKEAP1, 1000 nM | 91.7
sgRNA knockout: sgKEAP1, 10000 nM | 84.3
sgRNA knockout: sgNFE2L2, 10 nM | 128
sgRNA knockout: sgNFE2L2, 100 nM | 91.2
sgRNA knockout: sgNFE2L2, 1000 nM | 95.7
sgRNA knockout: sgNFE2L2, 10000 nM | 101
sgRNA knockout: sgSLC35F2, 10 nM | 99.6
sgRNA knockout: sgSLC35F2, 100 nM | 89.8
sgRNA knockout: sgSLC35F2, 1000 nM | 101
sgRNA knockout: sgSLC35F2, 10000 nM | 106
sgRNA knockout: sgXBP1, 10 nM | 125
sgRNA knockout: sgXBP1, 100 nM | 98.9
sgRNA knockout: sgXBP1, 1000 nM | 90.6
sgRNA knockout: sgXBP1, 10000 nM | 92.3

C[C@@H](Oc1cc(-n2cnc3ccc(CN4CCN(C)CC4)cc32)sc1C(N)=O)c1ccccc1C(F)(F)F
Conditions | relative cell number
sgRNA knockout: sgATF3, 10 nM | 46.3
sgRNA knockout: sgATF3, 100 nM | 13.8
sgRNA knockout: sgATF3, 1000 nM | 9.07
sgRNA knockout: sgATF3, 10000 nM | 9.43
sgRNA knockout: sgATF4, 10 nM | 42.4
sgRNA knockout: sgATF4, 100 nM | 12.6
sgRNA knockout: sgATF4, 1000 nM | 15
sgRNA knockout: sgATF4, 10000 nM | 12.9
sgRNA knockout: sgATF6, 10 nM | 43.5
sgRNA knockout: sgATF6, 100 nM | 20
sgRNA knockout: sgATF6, 1000 nM | 11.9
sgRNA knockout: sgATF6, 10000 nM | 9.22
sgRNA knockout: sgATG7, 10 nM | 35.2
sgRNA knockout: sgATG7, 100 nM | 12.7
sgRNA knockout: sgATG7, 1000 nM | 11.7
sgRNA knockout: sgATG7, 10000 nM | 11.8
sgRNA knockout: sgERN1, 10 nM | 44.2
sgRNA knockout: sgERN1, 100 nM | 11.1
sgRNA knockout: sgERN1, 1000 nM | 8.85
sgRNA knockout: sgERN1, 10000 nM | 16
sgRNA knockout: sgHSF1, 10 nM | 34.974
sgRNA knockout: sgHSF1, 100 nM | 12.2
sgRNA knockout: sgHSF1, 1000 nM | 14.7
sgRNA knockout: sgHSF1, 10000 nM | 7.95
sgRNA knockout: sgHSF2, 10 nM | 42.8
sgRNA knockout: sgHSF2, 100 nM | 13
sgRNA knockout: sgHSF2, 1000 nM | 14.8
sgRNA knockout: sgHSF2, 10000 nM | 12.9
sgRNA knockout: sgKEAP1, 10 nM | 40.5
sgRNA knockout: sgKEAP1, 100 nM | 17.6
sgRNA knockout: sgKEAP1, 1000 nM | 11.9
sgRNA knockout: sgKEAP1, 10000 nM | 13.1
sgRNA knockout: sgNFE2L2, 10 nM | 43.8
sgRNA knockout: sgNFE2L2, 100 nM | 12.2
sgRNA knockout: sgNFE2L2, 1000 nM | 11.3
sgRNA knockout: sgNFE2L2, 10000 nM | 10.2
sgRNA knockout: sgSLC35F2, 10 nM | 40.6
sgRNA knockout: sgSLC35F2, 100 nM | 18.6
sgRNA knockout: sgSLC35F2, 1000 nM | 9.95
sgRNA knockout: sgSLC35F2, 10000 nM | 6.37
sgRNA knockout: sgXBP1, 10 nM | 35.7
sgRNA knockout: sgXBP1, 100 nM | 18.5
sgRNA knockout: sgXBP1, 1000 nM | 14.2
sgRNA knockout: sgXBP1, 10000 nM | 10.7

CNC(=O)c1cc(Oc2ccc(NC(=O)Nc3ccc(Cl)c(C(F)(F)F)c3)c(F)c2)ccn1 [Regorafenib]
Conditions | relative cell number
sgRNA knockout: sgATF3, 10 nM | 115
sgRNA knockout: sgATF3, 100 nM | 89.5
sgRNA knockout: sgATF3, 1000 nM | 102
sgRNA knockout: sgATF3, 10000 nM | 34.3
sgRNA knockout: sgATF4, 10 nM | 136
sgRNA knockout: sgATF4, 100 nM | 117
sgRNA knockout: sgATF4, 1000 nM | 101
sgRNA knockout: sgATF4, 10000 nM | 48.6
sgRNA knockout: sgATF6, 10 nM | 113
sgRNA knockout: sgATF6, 100 nM | 87.5
sgRNA knockout: sgATF6, 1000 nM | 87.7
sgRNA knockout: sgATF6, 10000 nM | 30.4
sgRNA knockout: sgATG7, 10 nM | 102
sgRNA knockout: sgATG7, 100 nM | 94.7
sgRNA knockout: sgATG7, 1000 nM | 90.8
sgRNA knockout: sgATG7, 10000 nM | 35
sgRNA knockout: sgERN1, 10 nM | 99.7
sgRNA knockout: sgERN1, 100 nM | 119
sgRNA knockout: sgERN1, 1000 nM | 71.3
sgRNA knockout: sgERN1, 10000 nM | 33.4
sgRNA knockout: sgHSF1, 10 nM | 127
sgRNA knockout: sgHSF1, 100 nM | 84.4
sgRNA knockout: sgHSF1, 1000 nM | 73.1
sgRNA knockout: sgHSF1, 10000 nM | 35
sgRNA knockout: sgHSF2, 10 nM | 81.6
sgRNA knockout: sgHSF2, 100 nM | 78.9
sgRNA knockout: sgHSF2, 1000 nM | 77.4
sgRNA knockout: sgHSF2, 10000 nM | 43.7
sgRNA knockout: sgKEAP1, 10 nM | 91.7
sgRNA knockout: sgKEAP1, 100 nM | 81.9
sgRNA knockout: sgKEAP1, 1000 nM | 72.9
sgRNA knockout: sgKEAP1, 10000 nM | 30.8
sgRNA knockout: sgNFE2L2, 10 nM | 98
sgRNA knockout: sgNFE2L2, 100 nM | 125
sgRNA knockout: sgNFE2L2, 1000 nM | 99.6
sgRNA knockout: sgNFE2L2, 10000 nM | 39.2
sgRNA knockout: sgSLC35F2, 10 nM | 120
sgRNA knockout: sgSLC35F2, 100 nM | 103
sgRNA knockout: sgSLC35F2, 1000 nM | 76.6
sgRNA knockout: sgSLC35F2, 10000 nM | 30.5
sgRNA knockout: sgXBP1, 10 nM | 111
sgRNA knockout: sgXBP1, 100 nM | 82.4
sgRNA knockout: sgXBP1, 1000 nM | 89.7
sgRNA knockout: sgXBP1, 10000 nM | 37.8

COCC[n+]1c2c(n(Cc3cnccn3)c1C)C(=O)c1ccccc1C2=O [YM155]
Conditions | relative cell number
sgRNA knockout: sgATF3, 1 nM | 75.3
sgRNA knockout: sgATF3, 10 nM | 19.9
sgRNA knockout: sgATF3, 100 nM | 6.11
sgRNA knockout: sgATF3, 1000 nM | 4.11
sgRNA knockout: sgATF4, 1 nM | 49.7
sgRNA knockout: sgATF4, 10 nM | 35.6
sgRNA knockout: sgATF4, 100 nM | 4.83
sgRNA knockout: sgATF4, 1000 nM | 8.09
sgRNA knockout: sgATF6, 1 nM | 54
sgRNA knockout: sgATF6, 10 nM | 32.8
sgRNA knockout: sgATF6, 100 nM | 9.02
sgRNA knockout: sgATF6, 1000 nM | 6.24
sgRNA knockout: sgATG7, 1 nM | 55.21
sgRNA knockout: sgATG7, 10 nM | 23.4
sgRNA knockout: sgATG7, 100 nM | 9.38
sgRNA knockout: sgATG7, 1000 nM | 5.23
sgRNA knockout: sgERN1, 1 nM | 58.5
sgRNA knockout: sgERN1, 10 nM | 22.6
sgRNA knockout: sgERN1, 100 nM | 4.82
sgRNA knockout: sgERN1, 1000 nM | 4.88
sgRNA knockout: sgHSF1, 1 nM | 63.8
sgRNA knockout: sgHSF1, 10 nM | 26.1
sgRNA knockout: sgHSF1, 100 nM | 4.66
sgRNA knockout: sgHSF1, 1000 nM | 6.86
sgRNA knockout: sgHSF2, 1 nM | 68.4
sgRNA knockout: sgHSF2, 10 nM | 17.4
sgRNA knockout: sgHSF2, 100 nM | 8.92
sgRNA knockout: sgHSF2, 1000 nM | 5.33
sgRNA knockout: sgKEAP1, 1 nM | 93.574
sgRNA knockout: sgKEAP1, 10 nM | 26.7
sgRNA knockout: sgKEAP1, 100 nM | 9.12
sgRNA knockout: sgKEAP1, 1000 nM | 6.27
sgRNA knockout: sgNFE2L2, 1 nM | 63.4
sgRNA knockout: sgNFE2L2, 10 nM | 17.2
sgRNA knockout: sgNFE2L2, 100 nM | 5.13
sgRNA knockout: sgNFE2L2, 1000 nM | 6.63
sgRNA knockout: sgSLC35F2, 1 nM | 97.4
sgRNA knockout: sgSLC35F2, 10 nM | 119
sgRNA knockout: sgSLC35F2, 100 nM | 66.8
sgRNA knockout: sgSLC35F2, 1000 nM | 5.56
sgRNA knockout: sgXBP1, 1 nM | 64.6
sgRNA knockout: sgXBP1, 10 nM | 19.6
sgRNA knockout: sgXBP1, 100 nM | 4.91
sgRNA knockout: sgXBP1, 1000 nM | 5.15
